Construct, isoform or probe ends are uncertain for at least one entry. For part of these data: The comparison behind a weaker result is the experiment's own reference, which may not be listed here.

The results in this text go back to article PMC7949115, “Poly(ADP-ribose) polymerase 1 regulates mitochondrial DNA repair in an NAD-dependent manner”.

In series [1] the test system is PARP1 (PARP-1) + Pol gamma A (catalytic subunit) + Pol gamma B deltaI4 (accessory subunit). The series can be described thus: EMSA with western blot. The following applies: Buffer RX: 25 mM Hepes pH 7.5, 140 mM KCl, 5 mM MgCl2, 5% glycerol, 1 mM BME, EMSA incubated on ice then room temperature, recombinant protein, folded or branched DNA. For orientation: In EMSA bound probe runs differently from free probe, usually more slowly.

The subject of series [2] is Pol gamma A (catalytic subunit) + Pol gamma B deltaI4 (accessory subunit). As to the kind of experiment: EMSA. Conditions: no PARP1, Pol gamma 0.5 uM, DNA 0.75 uM; Buffer RX: 25 mM Hepes pH 7.5, 140 mM KCl, 5 mM MgCl2, 5% glycerol, 1 mM BME; EMSA incubated on ice then room temperature; recombinant protein; protein details: His,His; folded or branched DNA.

Regarding “CTTTTCTGGTGAAAAGCTCGTCGGCAGCGCTTGAGCAGCGGCAGCTGGTGCTGCCGCTGCTCAAGCGCTGCCGAC [d3ntgap (75-nt dumbbell with 3-nt gap)]”, the binding result in series [1] (NAD+ added, ternary complex dissociates to Pol gamma-DNA) was “binds more weakly”; in series [1] (NAD+ and Olaparib, dissociation prevented), “binds”; in series [2] it was “binds”.
